Amino acid sequences for entries named in this document (tags omitted). A change or cut given only in a name is not applied to a line headed by its entry.
UniProt Q12809: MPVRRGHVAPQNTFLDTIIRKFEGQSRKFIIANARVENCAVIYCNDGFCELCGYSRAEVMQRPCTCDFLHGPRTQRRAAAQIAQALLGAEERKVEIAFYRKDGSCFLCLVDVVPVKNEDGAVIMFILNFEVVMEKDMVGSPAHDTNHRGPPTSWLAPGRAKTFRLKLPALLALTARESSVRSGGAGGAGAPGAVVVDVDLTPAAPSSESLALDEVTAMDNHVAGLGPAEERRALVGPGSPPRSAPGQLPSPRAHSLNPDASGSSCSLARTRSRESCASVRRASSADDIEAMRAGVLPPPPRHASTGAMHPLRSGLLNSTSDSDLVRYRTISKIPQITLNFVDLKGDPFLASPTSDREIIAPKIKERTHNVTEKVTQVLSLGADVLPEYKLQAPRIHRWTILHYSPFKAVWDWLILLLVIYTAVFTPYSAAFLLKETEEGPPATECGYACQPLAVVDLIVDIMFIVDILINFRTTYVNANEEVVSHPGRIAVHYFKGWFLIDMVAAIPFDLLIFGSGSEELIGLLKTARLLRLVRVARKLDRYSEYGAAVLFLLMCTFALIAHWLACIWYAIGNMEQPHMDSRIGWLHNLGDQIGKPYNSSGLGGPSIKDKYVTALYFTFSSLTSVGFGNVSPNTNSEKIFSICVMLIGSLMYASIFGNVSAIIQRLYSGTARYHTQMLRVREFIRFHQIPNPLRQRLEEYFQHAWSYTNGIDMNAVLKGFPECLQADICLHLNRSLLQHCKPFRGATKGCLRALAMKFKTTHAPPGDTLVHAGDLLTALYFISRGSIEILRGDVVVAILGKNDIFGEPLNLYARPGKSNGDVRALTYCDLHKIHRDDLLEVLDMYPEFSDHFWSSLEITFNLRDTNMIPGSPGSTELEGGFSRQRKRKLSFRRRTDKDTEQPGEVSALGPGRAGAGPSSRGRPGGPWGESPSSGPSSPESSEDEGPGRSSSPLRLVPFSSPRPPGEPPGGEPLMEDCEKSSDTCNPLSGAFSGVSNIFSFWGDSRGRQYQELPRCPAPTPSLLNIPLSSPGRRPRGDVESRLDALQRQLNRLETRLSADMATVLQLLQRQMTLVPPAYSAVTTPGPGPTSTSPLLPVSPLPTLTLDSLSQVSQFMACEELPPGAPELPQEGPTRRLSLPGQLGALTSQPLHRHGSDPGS

About 1,300 (0.38%) of roughly 340,000 compounds were called active. The shares of active, inactive and inconclusive entries below differ from those in the screen.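 The calls were made as follows: active = maximum activity change below -70%; inconclusive = maximum activity change between -70% and -50%; inactive = maximum activity change above -50%.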
What follows are molecules tested against Voltage-gated inwardly rectifying potassium channel KCNH2 (Homo sapiens) (UniProt Q12809) (assay: qHTS for Inhibitors of KCHN2 3.1: Wildtype qHTS). Conditions: U2OS, BacMam KCNH2, thallium flux FluxOr; at 1.84 µM; hits give low values.
Text: Many antipsychotic drugs that inhibit the neurotransmitter dopamine also bind to hERG1 channel which might help explain their antipsychotic activity but also produces cardiac side effects. The discovery of the novel KCNH2 3.1 isoform offers a potential new target for the development of antipsychotic drugs without cardiac side effects. This proposal will use a high throughput thallium flux assay developed for KCNH2 to screen compounds that modulate the activity of KCNH2 3.1. The wild type KCNH2 channel will also be screened in parallel to help define the selective modulators of this KCNH2 3.1 potassium channel. The resulting compounds will be validated in electrophysiology experiments. The availability of animal models will allow future testing in vivo for effects on memory and other aspects of animal physiology linked with psychosis. NIH Chemical Genomics Center [NCGC] NIH Molecular Libraries Probe Centers Network [MLPCN] MLPCN Grant: MH096539 Assay Submitter (PI): James Barrow, Johns Hopkins University, Lieber Institute for Brain Development
U2OS cells were resuspended in cell media containing 10% fetal calf serum (FCS) at a concentration of 2 million cells / mL. The solution was treated with the Wild-type virus at 2.03 x 10^8 / mL and allowed to incubate at room temperature in the dark. After 4 hours of incubation, DMEM + 10% fetal bovine serum (FBS) was added to the cell solution. Three microliter was then dispensed into a 1536 tissue culture treated black assay plates which were incubated overnight at 37 C. Two microliter of loading buffer (HBSS + HEPES + Red40 dye quencher + FluxOr dye) was added and the assay plates were incubated for 45 min at room temperature in the dark. […] A stimulation buffer was added to the plate and the second kinetic read (2 min) was obtained. The rate constant was calculated from the kinetic reads and normalized to the positive and negative DMSO controls.
In the case of `CSc1ccc(CN2CCN(c3ccccc3C)CC2)cc1`, the activity change is reported as active: -129%.
For `OC(COCc1ccc(Cl)cc1)CN1CC=C(c2ccccc2)CC1` (stereo not drawn), the activity change was inconclusive: -55.3%.
`CC12CCC(=O)C=C1CCC1C2C(O)CC2(C)C(O)CCC12` (stereo not drawn) was tested, and the activity change was inactive: -0.595%.
In the case of `COc1ccc(-n2c(/C=C/c3ccc(O)cc3)nc3ccccc3c2=O)cc1`, the activity change is reported as active: -92.5%.
For `COc1ccc(/C=C/C(=O)NC(=S)N2C[C@H]3C[C@H](C2)c2cccc(=O)n2C3)cc1`, the activity change was inactive: 3.89%.
`Cc1ccc(-n2c(O)c(C=NCCN3CCOCC3)c(=O)[nH]c2=O)cc1` was tested, and the activity change was inactive: -1.95%.
With `CCOC(=O)C1CCN(/C=C2\C(=O)NC(=S)N(CC)C2=O)CC1` the activity change was inactive: -16.5%.
With `C[N+]1(C)C2CCC1CC(OC(=O)c1ccco1)C2` (stereo not drawn) the activity change was inactive: 5.5%.
`Cc1cc(Br)ccc1N1C(=O)CC(=O)NC1=O` was tested, and the activity change was inactive: -11.4%.
For `CCN(CC)c1ccc(/C=C2\C(=O)NC(=O)N(CC3CCCO3)C2=O)cc1` (stereo not drawn), the activity change was inactive: 21.9%.
In the case of `Oc1c(Br)cc(Br)cc1CN1CCN(Cc2ccccc2)CC1`, the activity change is reported as inconclusive: -62%.
In the case of `COc1ccc(-c2nc3ccccc3c(=O)n2-c2cccnc2)cc1`, the activity change is reported as inconclusive: -54.5%.
In the case of `CN1C(=O)C(C)(C2=CCCCC2)C(=O)NC1=S` (stereo not drawn), the activity change is reported as inconclusive: -56%.
For `CCOC(=O)Cn1cc(C(=O)c2ccccc2F)c2ccccc21`, the activity change was inactive: 8.54%.
For `Clc1ccc2c(c1)C(c1ccccc1Cl)=NCc1nnc(N3CCN(CCOc4ccccc4)CC3)n1-2`, the activity change was inconclusive: -64.4%.
With `COC(=O)C1=C(c2ccc(F)cc2OCc2ccccc2)C[C@@H]2CC[C@H]1N2C(=O)NCCc1ccc(F)cc1` the activity change was inconclusive: -53.4%.
`CCn1c(C(=O)N2CCC(C(=O)N3CCC4(CC3)OCCO4)CC2)cc2sccc21` was tested, and the activity change was inconclusive: -68.1%.
For `CS(=O)(=O)c1ccc(C2=C(CNC(=O)c3nccs3)[C@H]3CC[C@@H](C2)N3CCOc2ccccc2)cc1`, the activity change was inconclusive: -69.1%.
`COC(=O)C1=C(c2ccc(Cl)c(C(F)(F)F)c2)C[C@@H]2CC[C@H]1N2C(=O)NC1CCCCC1` was tested, and the activity change was inactive: 4.91%.
In the case of `c1ccc(CCCN2CCN(CCOC(c3ccccc3)c3ccccc3)CC2)cc1`, the activity change is reported as inconclusive: -62%.
In the case of `CN1CCN(CC(=O)Nc2ccc(Cl)cc2C(=O)c2ccccc2)CC1`, the activity change is reported as inconclusive: -67.3%.
`O=c1c2ccccc2[nH]c(=S)n1-c1ccc2c(c1)OCCO2` was tested, and the activity change was inactive: -7.15%.
With `CS(=O)(=O)c1ccc(C2=C(CNC(=O)c3ccncc3)[C@H]3CC[C@@H](C2)N3Cc2ccccc2)cc1` the activity change was inconclusive: -68.4%.

— PubChem BioAssay AID720551 (National Center for Advancing Translational Sciences (NCATS), 2013)
% is scaled to controls: 0 for no effect and ±100 for the full control effect.
